Measurements reported in US11529319B2, “Methods and compositions for treating neurological conditions” (priority 2017, dated 2022).
Some entries share one result that the patent states for a list of compounds.

Experiment: Effective drug concentration at NMDARs in the brain after i.p. dosing
Type: in vivo, mouse
Details: i.p. loading 92 μmol/kg then 4.6 μmol/kg twice daily for two and a half days

Structure (SMILES)	effective concentration of drug at NMDARs in the brain [µM]
CC12CC3CC(C)(C1)CC(N)(C3)C2 [memantine, reference compound]	1 to 10
CCC12CC3(N)CC(CC)(C1)CC(O[N+](=O)[O-])(C3)C2 [NitroSynapsin]	1 to 10
